This note sets out measurements from PMC6361202.

For test [1], the target named is T1, wt β-tubulin (Tub2) fused to the LexA DNA-binding domain (S. cerevisiae) (UniProt P02557).
T1 sequence: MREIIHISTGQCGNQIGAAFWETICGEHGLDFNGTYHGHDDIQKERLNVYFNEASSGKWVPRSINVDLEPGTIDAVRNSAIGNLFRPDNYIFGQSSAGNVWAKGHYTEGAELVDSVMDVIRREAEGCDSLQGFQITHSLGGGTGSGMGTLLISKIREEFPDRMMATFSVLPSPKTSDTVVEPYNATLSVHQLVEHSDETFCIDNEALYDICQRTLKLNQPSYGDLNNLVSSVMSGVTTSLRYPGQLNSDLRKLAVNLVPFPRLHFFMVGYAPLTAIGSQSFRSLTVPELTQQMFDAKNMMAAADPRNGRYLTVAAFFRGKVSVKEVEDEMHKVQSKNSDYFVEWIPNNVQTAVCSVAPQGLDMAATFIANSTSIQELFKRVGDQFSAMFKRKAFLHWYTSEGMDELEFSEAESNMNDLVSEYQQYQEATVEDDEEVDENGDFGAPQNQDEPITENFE
As to the kind of experiment: two-hybrid; Bim1 fused to the GAL4 activation domain (pGADT7); wt or F265L β-tubulin or Kar9 fused to the LexA DNA-binding domain (pLexA); β-galactosidase activity detected on filters.

The target of test [2] is T2, Kar9 fused to the LexA DNA-binding domain (S. cerevisiae) (UniProt P32526).
T2 sequence: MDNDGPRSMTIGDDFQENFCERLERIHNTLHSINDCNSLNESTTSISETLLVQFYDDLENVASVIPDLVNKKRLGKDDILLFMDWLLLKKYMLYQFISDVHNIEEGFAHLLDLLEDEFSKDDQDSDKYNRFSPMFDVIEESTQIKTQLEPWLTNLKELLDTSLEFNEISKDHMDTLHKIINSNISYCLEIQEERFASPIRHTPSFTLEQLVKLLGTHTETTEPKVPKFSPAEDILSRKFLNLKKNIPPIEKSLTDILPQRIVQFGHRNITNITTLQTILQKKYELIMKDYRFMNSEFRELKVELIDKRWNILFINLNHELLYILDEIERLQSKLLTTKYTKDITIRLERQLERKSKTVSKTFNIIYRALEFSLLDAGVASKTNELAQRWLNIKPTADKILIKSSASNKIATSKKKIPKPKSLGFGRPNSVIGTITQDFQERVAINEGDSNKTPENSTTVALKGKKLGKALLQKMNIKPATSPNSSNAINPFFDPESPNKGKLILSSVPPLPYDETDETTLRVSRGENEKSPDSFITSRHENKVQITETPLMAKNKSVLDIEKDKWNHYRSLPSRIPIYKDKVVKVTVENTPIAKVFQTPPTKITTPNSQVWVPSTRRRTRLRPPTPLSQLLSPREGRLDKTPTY
The test is described as above.

No constants are given. Whether binding was seen depends on the method and setting. Some binding calls cover weakened binding; strength is not graded here. Tags and fused reporters may be left off the sequences shown.

B1: Bim1 (yeast EB1) fused to the GAL4 activation domain (protein, UniProt P40013 1-344)
chain: MSAGIGESRTELLTWLNGLLNLNYKKIEECGTGAAYCQIMDSIYGDLPMNRVKFNATAEYEFQTNYKILQSCFSRHGIEKTVYVDKLIRCKFQDNLEFLQWLKKHWIRHKDESVYDPDARRKYRPIITNNSATKPRTVSNPTTAKRSSSTGTGSAMSGGLATRHSSLGINGSRKTSVTQGQLVAIQAELTKSQETIGSLNEEIEQYKGTVSTLEIEREFYFNKLRDIEILVHTTQDLINEGVYKFNDETITGHGNGNGGALLRFVKKVESILYATAEGFEMNDGEDELNDKNLGEHGTVPNQGGYANSNGEVNGNEGSNHDVIMQNDEGEVGVSNNLIIDEETF
As for B1, the binding entry in test [1] and in test [2] was “binds” in each case.
